This is an account of results in article doi:10.1101/2021.05.26.444586.

These are yes or no findings as the source states them, for the method shown. In cells and extracts the contact can be indirect. Some binding calls cover weakened binding; strength is not graded here. Where a sequence is shown, tags or fusion partners need not be part of it.

The assay deals with T1, MIM-FLAG (Mus musculus) (UniProt Q8R1S4).
T1 sequence: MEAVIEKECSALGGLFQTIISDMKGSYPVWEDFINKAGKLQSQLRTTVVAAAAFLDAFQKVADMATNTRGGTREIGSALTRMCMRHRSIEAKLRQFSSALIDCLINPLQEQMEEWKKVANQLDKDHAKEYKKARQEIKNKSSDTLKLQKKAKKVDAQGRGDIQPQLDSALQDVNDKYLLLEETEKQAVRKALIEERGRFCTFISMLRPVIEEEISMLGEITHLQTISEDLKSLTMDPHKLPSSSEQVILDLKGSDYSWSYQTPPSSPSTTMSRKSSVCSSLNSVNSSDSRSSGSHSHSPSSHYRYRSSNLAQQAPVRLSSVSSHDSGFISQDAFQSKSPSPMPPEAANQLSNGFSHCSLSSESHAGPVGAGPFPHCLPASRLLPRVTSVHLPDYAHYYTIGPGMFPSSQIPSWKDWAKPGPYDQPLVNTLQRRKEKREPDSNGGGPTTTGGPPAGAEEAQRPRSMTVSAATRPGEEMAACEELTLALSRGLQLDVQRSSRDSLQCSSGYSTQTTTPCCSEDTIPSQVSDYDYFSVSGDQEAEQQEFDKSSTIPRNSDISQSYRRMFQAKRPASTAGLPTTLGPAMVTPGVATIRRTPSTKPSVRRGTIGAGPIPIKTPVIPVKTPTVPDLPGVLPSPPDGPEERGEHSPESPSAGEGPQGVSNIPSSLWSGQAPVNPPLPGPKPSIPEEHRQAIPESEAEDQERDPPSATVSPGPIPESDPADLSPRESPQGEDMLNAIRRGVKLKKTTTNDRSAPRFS
The experiment in a line: co-IP.

B1: full-length EVL (tagged, overexpressed) (protein, UniProt P70429 1-414)
chain: MSEQSICQARASVMVYDDTSKKWVPIKPGQQGFSRINIYHNTASSTFRVVGVKLQDQQVVINYSIVKGLKYNQATPTFHQWRDARQVYGLNFASKEEATTFSNAMLFALNIMNSQEGGPSTQRQVQNGPSPEEMDIQRRQVMEQQHRQESLERRISATGPILPPGHPSSAASTTLSCSGPPPPPPPPVPPPPTGSTPPPPPPLPAGGAQGTNHDESSASGLAAALAGAKLRRVQRPEDASGGSSPSGTSKSDANRASSGGGGGGLMEEMNKLLAKRRKAASQTDKPADRKEDESQTEDPSTSPSPGTRATSQPPNSSEAGRKPWERSNSVEKPVSSLLSRTPSVAKSPEAKSPLQSQPHSRVKPAGSVNDVGLDALDLDRMKQEILEEVVRELHKVKEEIIDAIRQELSGISTT
B1: the binding entry was “binds”.
